Assay results: the supplement of paper PMC7666118
Some of the results follow.

Chains of the proteins cited; added tags and fusions are not shown. Lines headed by an entry give the natural chain unless they say otherwise; changes in a name come on top.
UniProt Q8WUW1: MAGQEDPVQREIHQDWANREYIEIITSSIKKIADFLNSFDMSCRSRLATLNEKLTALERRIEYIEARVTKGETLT
UniProt Q5T5Y3: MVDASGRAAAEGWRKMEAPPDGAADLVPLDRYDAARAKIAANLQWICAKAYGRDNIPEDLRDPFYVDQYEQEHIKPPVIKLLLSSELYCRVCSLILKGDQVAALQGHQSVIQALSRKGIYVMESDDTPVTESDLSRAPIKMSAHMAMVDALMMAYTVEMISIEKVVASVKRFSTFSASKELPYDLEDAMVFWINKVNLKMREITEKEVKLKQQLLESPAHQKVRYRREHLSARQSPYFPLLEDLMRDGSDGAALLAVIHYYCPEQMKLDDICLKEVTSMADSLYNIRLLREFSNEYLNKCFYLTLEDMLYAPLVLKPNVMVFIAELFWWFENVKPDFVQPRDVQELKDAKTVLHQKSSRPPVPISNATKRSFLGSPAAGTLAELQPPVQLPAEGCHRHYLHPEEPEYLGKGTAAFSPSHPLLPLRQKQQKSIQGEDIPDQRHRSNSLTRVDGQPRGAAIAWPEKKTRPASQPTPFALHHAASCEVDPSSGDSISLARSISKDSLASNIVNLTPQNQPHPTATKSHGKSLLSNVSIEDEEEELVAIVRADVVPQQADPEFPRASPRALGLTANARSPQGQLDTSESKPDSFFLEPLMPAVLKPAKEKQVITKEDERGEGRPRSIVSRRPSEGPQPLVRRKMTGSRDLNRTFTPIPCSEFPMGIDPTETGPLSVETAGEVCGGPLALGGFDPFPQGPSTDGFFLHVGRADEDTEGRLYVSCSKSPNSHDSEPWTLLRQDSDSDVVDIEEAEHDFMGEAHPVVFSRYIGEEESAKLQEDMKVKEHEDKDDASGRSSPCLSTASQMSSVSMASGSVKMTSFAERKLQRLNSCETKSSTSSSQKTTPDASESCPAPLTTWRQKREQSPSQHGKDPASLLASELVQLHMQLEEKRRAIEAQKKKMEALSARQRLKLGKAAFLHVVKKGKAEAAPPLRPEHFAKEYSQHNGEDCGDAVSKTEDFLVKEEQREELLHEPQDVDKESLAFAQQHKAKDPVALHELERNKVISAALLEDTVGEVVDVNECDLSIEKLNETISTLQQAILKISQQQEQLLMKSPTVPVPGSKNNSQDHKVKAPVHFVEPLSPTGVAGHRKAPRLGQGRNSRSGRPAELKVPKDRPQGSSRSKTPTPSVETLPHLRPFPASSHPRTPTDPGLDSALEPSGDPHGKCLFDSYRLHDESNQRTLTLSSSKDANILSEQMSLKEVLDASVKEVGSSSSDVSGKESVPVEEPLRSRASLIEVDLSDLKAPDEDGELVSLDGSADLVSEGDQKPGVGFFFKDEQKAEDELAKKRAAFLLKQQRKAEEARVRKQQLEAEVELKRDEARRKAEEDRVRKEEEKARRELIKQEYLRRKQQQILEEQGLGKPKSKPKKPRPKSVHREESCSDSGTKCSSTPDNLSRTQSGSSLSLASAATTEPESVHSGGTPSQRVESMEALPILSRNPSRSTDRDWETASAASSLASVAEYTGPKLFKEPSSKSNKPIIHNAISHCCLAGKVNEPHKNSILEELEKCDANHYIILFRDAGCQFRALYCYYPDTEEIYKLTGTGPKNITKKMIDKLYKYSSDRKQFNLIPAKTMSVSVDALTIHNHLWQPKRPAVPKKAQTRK
UniProt Q6NW34: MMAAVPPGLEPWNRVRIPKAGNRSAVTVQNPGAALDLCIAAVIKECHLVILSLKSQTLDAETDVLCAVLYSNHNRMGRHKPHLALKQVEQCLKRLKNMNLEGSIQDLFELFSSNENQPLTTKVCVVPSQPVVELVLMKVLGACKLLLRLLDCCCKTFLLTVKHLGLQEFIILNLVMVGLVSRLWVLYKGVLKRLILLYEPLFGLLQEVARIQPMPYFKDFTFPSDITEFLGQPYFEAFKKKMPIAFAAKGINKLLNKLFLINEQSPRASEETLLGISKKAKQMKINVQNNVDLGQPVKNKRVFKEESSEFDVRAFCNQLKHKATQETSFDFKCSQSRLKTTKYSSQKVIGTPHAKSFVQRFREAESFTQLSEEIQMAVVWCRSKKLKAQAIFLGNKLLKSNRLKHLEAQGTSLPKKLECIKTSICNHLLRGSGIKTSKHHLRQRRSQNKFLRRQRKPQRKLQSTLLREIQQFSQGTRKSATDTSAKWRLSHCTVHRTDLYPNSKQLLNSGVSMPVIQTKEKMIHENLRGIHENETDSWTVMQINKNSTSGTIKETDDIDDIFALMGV
UniProt Q9HA77: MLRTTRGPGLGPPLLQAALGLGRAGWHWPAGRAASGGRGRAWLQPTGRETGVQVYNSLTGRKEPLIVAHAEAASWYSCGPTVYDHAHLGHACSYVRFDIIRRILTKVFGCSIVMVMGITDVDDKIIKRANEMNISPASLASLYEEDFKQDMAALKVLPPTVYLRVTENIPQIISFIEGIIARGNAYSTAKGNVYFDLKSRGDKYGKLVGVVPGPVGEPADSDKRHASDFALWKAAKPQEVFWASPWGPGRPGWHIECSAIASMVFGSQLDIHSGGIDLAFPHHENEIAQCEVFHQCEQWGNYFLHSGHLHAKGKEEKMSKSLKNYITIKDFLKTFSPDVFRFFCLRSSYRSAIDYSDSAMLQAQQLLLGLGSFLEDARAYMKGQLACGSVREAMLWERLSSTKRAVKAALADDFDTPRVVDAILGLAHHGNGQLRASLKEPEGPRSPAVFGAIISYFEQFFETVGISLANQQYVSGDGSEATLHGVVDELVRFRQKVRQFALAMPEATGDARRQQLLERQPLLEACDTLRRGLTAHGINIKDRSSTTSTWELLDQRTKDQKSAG
UniProt Q5TEU4: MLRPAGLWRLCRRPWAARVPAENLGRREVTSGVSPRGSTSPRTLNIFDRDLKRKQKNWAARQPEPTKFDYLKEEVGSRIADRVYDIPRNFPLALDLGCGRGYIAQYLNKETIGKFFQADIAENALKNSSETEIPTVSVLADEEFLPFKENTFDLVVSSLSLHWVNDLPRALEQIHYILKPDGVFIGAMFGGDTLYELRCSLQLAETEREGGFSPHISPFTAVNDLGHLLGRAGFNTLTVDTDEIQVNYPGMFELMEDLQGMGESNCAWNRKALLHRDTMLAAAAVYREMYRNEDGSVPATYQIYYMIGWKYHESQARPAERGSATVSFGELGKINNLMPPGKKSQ
UniProt P27708: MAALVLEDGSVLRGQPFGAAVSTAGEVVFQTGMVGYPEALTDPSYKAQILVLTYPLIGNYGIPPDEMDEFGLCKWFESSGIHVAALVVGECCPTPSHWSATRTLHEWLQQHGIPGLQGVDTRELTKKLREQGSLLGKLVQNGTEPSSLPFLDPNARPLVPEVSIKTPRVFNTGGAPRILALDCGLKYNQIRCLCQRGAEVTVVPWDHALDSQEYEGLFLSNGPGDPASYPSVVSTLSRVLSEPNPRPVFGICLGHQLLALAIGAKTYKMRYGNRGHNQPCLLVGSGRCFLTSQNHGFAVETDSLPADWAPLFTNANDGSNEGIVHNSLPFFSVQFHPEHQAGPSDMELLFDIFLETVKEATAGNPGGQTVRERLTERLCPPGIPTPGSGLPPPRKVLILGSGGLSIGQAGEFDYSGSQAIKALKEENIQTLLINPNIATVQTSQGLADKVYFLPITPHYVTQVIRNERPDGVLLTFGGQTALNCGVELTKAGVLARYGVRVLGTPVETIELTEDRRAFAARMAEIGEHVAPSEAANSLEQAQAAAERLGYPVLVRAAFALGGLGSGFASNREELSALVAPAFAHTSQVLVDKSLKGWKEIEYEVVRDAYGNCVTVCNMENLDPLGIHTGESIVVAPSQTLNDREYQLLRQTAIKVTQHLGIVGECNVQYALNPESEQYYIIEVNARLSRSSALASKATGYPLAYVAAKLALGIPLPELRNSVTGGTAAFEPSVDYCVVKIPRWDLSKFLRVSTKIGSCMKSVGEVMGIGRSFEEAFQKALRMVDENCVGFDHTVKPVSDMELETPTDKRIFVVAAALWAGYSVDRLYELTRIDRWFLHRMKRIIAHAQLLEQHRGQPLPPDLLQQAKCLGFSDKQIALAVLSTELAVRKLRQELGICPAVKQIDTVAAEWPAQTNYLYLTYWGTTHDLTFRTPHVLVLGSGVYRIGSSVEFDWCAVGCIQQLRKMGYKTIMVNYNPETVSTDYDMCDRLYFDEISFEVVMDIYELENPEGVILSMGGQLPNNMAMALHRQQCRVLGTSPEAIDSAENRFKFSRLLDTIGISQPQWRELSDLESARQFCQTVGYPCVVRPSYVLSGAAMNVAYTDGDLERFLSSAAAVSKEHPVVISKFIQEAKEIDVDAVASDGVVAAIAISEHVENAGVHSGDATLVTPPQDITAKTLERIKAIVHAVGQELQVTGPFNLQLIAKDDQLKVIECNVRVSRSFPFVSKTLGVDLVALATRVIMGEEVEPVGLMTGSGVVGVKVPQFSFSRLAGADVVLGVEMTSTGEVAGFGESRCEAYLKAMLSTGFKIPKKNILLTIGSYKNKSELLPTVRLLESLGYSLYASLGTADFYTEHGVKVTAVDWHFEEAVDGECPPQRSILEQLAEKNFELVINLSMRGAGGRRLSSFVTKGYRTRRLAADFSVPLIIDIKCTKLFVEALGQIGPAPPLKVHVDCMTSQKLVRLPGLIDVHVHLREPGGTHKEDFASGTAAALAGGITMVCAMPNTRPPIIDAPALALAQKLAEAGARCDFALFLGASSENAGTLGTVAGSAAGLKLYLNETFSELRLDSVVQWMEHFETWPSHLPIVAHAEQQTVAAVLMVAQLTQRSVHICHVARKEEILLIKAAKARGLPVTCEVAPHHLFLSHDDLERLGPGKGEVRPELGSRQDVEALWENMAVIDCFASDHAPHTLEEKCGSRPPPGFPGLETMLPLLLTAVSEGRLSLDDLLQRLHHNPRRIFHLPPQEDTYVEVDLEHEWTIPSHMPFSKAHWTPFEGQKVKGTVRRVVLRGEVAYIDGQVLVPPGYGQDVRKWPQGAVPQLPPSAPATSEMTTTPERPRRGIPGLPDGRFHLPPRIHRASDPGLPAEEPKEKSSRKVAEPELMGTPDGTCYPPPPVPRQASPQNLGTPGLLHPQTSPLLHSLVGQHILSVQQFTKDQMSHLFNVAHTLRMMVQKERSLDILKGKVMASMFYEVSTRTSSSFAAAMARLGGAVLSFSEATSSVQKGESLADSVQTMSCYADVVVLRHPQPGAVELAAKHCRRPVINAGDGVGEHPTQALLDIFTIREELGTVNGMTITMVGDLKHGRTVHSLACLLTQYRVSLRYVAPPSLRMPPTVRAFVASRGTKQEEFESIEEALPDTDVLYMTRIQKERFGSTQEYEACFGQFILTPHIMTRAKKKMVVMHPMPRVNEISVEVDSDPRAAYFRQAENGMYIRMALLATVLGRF
UniProt Q96SY0, whole entry: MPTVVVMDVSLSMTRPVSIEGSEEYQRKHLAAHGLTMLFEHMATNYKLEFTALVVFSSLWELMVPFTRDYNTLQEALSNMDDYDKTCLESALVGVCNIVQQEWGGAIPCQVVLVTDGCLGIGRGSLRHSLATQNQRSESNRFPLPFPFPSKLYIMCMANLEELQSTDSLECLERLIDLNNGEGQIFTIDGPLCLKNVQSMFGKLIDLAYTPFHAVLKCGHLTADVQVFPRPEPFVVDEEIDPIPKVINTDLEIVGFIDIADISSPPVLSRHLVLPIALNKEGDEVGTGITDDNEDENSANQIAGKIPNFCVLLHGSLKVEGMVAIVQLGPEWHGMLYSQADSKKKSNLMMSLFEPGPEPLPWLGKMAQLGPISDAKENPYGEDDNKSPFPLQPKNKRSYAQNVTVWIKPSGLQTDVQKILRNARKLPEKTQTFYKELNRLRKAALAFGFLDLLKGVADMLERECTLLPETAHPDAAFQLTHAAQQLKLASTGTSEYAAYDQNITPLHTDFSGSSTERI
UniProt O15234, whole entry: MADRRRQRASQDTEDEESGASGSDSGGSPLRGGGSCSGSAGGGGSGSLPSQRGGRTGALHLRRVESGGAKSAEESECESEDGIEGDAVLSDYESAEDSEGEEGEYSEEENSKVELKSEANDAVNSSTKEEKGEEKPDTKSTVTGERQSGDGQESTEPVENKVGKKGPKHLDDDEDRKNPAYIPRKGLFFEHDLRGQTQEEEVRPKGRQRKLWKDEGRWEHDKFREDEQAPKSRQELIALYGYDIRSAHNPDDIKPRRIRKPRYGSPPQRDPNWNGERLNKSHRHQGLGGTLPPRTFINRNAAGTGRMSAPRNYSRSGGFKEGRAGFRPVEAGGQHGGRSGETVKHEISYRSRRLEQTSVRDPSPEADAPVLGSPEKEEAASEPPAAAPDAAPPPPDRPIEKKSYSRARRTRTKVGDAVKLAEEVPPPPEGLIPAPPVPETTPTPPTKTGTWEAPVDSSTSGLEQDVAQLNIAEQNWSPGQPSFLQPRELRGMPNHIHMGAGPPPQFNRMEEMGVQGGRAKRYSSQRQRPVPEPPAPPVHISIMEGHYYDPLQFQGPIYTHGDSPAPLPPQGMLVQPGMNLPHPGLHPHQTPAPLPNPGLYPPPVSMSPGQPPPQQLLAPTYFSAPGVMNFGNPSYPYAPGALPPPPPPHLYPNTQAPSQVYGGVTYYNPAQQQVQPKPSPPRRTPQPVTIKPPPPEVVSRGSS

The targets below were run with COc1ccc(Cn2ccc3ccc(C(=O)NO)cc32)cc1 (assay: dose-dependent thermal stabilisation call (2D-TPP, DLPTP, 10% FDR) (binary (1 = stabilised)); higher = stabilised by the compound). Conditions: system: HL-60 intact cells; concentration range 0.04-10 µM.
C2ORF79 (UniProt Q6GMV3) was tested, and the “dose-dependent thermal stabilisation call” value was inactive: 0. CARKD (UniProt Q8IW45) was tested, and the “dose-dependent thermal stabilisation call” value was inactive: 0. C3ORF10 (UniProt Q8WUW1) was tested, and the “dose-dependent thermal stabilisation call” value was inactive: 0. With C9ORF167 (UniProt Q9NXH8) the “dose-dependent thermal stabilisation call” value was inactive: 0. In the case of C6ORF150 (UniProt Q8N884), the “dose-dependent thermal stabilisation call” value is reported as inactive: 0. C2CD2L (UniProt O14523) was tested, and the “dose-dependent thermal stabilisation call” value was inactive: 0. In the case of C19ORF63 (UniProt Q5UCC4), the “dose-dependent thermal stabilisation call” value is reported as inactive: 0. For C2ORF15 (UniProt Q8WU43), the “dose-dependent thermal stabilisation call” value was inactive: 0. For C1ORF186 (UniProt Q6ZWK4), the “dose-dependent thermal stabilisation call” value was inactive: 0. For C9ORF6 (UniProt Q9NX38), the “dose-dependent thermal stabilisation call” value was inactive: 0. In the case of CAMSAP1 (UniProt Q5T5Y3), the “dose-dependent thermal stabilisation call” value is reported as inactive: 0. For C4ORF27 (UniProt Q9NWY4), the “dose-dependent thermal stabilisation call” value was inactive: 0. With C3ORF17 (UniProt Q6NW34) the “dose-dependent thermal stabilisation call” value was inactive: 0. With CARS2 (UniProt Q9HA77) the “dose-dependent thermal stabilisation call” value was inactive: 0. C1GALT1C1 (UniProt Q96EU7) was tested, and the “dose-dependent thermal stabilisation call” value was inactive: 0. With C20ORF7 (UniProt Q5TEU4) the “dose-dependent thermal stabilisation call” value was inactive: 0. In the case of CBARA1 (UniProt Q9BPX6), the “dose-dependent thermal stabilisation call” value is reported as inactive: 0. For CCAR1 (UniProt Q8IX12), the “dose-dependent thermal stabilisation call” value was inactive: 0. In the case of CAD (UniProt P27708), the “dose-dependent thermal stabilisation call” value is reported as inactive: 0. C9ORF123 (UniProt Q96GE9) was tested, and the “dose-dependent thermal stabilisation call” value was inactive: 0. With C4ORF41 (UniProt Q7Z392) the “dose-dependent thermal stabilisation call” value was inactive: 0. With C1ORF38 (UniProt Q5TEJ8) the “dose-dependent thermal stabilisation call” value was inactive: 0. In the case of CBX8 (UniProt Q9HC52), the “dose-dependent thermal stabilisation call” value is reported as inactive: 0. In the case of CAPN1 (UniProt P07384), the “dose-dependent thermal stabilisation call” value is reported as inactive: 0. C20ORF3 (UniProt Q9HDC9) was tested, and the “dose-dependent thermal stabilisation call” value was inactive: 0. With C18ORF19 (UniProt Q96ND0) the “dose-dependent thermal stabilisation call” value was inactive: 0. With C14ORF104 (UniProt Q9NVR5) the “dose-dependent thermal stabilisation call” value was inactive: 0. With C15ORF57 (UniProt Q9BV29) the “dose-dependent thermal stabilisation call” value was inactive: 0. In the case of C4ORF16 (UniProt Q63HQ0), the “dose-dependent thermal stabilisation call” value is reported as inactive: 0. C1ORF57 (UniProt Q9BSD7) was tested, and the “dose-dependent thermal stabilisation call” value was inactive: 0. C8ORF82 (UniProt Q6P1X6) was tested, and the “dose-dependent thermal stabilisation call” value was inactive: 0. For C15ORF44 (UniProt Q96SY0), the “dose-dependent thermal stabilisation call” value was inactive: 0. CASC3 (UniProt O15234) was tested, and the “dose-dependent thermal stabilisation call” value was inactive: 0. For C2ORF69 (UniProt Q8N8R5), the “dose-dependent thermal stabilisation call” value was inactive: 0. C20ORF142 (UniProt Q8N6M3) was tested, and the “dose-dependent thermal stabilisation call” value was inactive: 0. In the case of C7ORF26 (UniProt Q96N11), the “dose-dependent thermal stabilisation call” value is reported as inactive: 0. In the case of C1ORF122 (UniProt Q6ZSJ8), the “dose-dependent thermal stabilisation call” value is reported as inactive: 0.
